# The whole screen tested about 400,000 compounds, of which about 13,000 (3.2%) were called active. Inconclusive results, whose numbers are uncertain, are shown with a selection of clear calls. The call rests on the fitted dose curve; in most records, active means well fitted cell-killing curve with a large enough effect; inconclusive means small, poorly fitted or top-dose-only effect, or effect the other way; inactive means flat fitted curve, though single readings scatter. Where the call is inconclusive, the potency comes from a doubtful curve fit.
# Test: qHTS assay for MDR1-selective chemotherapeutics: Primary screen using the drug-selected MDR subline cells KB-V1; further: nearly all actives have a fitted effect of over 60% in size
# Conditions: KB-V1 MDR cells viability, CellTiter-Glo, 72 h; activity change, negative = cytotoxicity: at 46.1 µM (top of the series)
# In short: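 Cytotoxicity toward P-gp-expressing KB-V1 cells was determined as loss of CellTiter-Glo luminescence after 72 h at 37 degrees C. Compounds were tested in quantitative HTS format across a concentration range, with curves fitted to normalized data.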
# On the % scale 0 is the no-effect control and ±100 the full control effect; potency means the concentration at half of the fitted maximal effect.
SMILES,Potency,"activity change, negative = cytotoxicity"
O=C(Nc1cccc(C(=O)N2CCN(c3ccc(Cl)cc3)CC2)c1)c1nsc2ccccc12,"inconclusive: 7.31 µM [cytotoxic, partial curve, poor fit]",–
CC(=O)Nc1cccc(-c2ccnc3c2CC(C)(C(=O)NCc2cccs2)O3)c1 (stereo unspecified),–,inactive: -13.5%
COC(=O)C[C@@H]1C=C[C@@H](NC(C)=O)[C@@H](CO)O1,–,inactive: 2.18%
O=C(Nc1nc(-c2ccc(F)c(F)c2)cs1)c1cnccn1,–,inactive: 20.1%
Cc1ccc(Cn2ccsc2=NC(=O)COC(=O)c2ccc(O)cc2O)cc1,–,inactive: -4.95%
COc1ccc(/C=N\NC(=O)c2ccccc2F)cc1COc1ccc(F)cc1F,"inconclusive: 1.64 µM [cytotoxic, full curve, poor fit]",–
CCCNC(=O)c1onc(CSc2ccc(F)c(F)c2)c1C(=O)NCCC,–,inactive: -12%
Cc1cc(C)c(S(=O)(=O)NCCOc2ccccc2)c(C)c1-n1cnnn1,"inconclusive: 25.9 µM [cytotoxic, single point]",–
C=CCC(C(=O)NC(C)c1ccccc1)C(=O)NC(C)c1ccccc1 (stereo unspecified),–,inactive: -11.6%
O=C(NCc1cccs1)c1ccc(CS(=O)Cc2ccc(Cl)cc2)o1 (stereo unspecified),"inconclusive: 18.4 µM [cytotoxic, single point]",–
COc1cc(-c2nnc(COC(=O)c3cccn3C)o2)cc(OC)c1OC,"inconclusive: 5.17 µM [cytotoxic, full curve]",–
COc1cc(NC(=O)CCc2nnc3ccc(N4CCOCC4)nn23)cc(OC)c1OC,–,inactive: 24.3%
Cc1ccc(C(=O)NCCc2ccc(S(N)(=O)=O)cc2)o1,"inconclusive: 18.4 µM [rising, partial curve]",–
CCOc1cc(C)nc(NCCc2ccc(OC)c(OC)c2)n1,"inconclusive: 10.3 µM [cytotoxic, partial curve]",–
CN(CC(=O)Nc1c(Cl)cccc1Cl)C(=O)c1sccc1-c1ccccc1,"inconclusive: 6.51 µM [cytotoxic, partial curve]",–
O=C(Nc1ccc(CN2CCOCC2)cc1)c1cc2ccccc2o1,"inconclusive: 29.1 µM [cytotoxic, single point]",–
O=C(Nc1ncccc1O)c1ccc2c(c1)OCCO2,"inconclusive: 29.1 µM [cytotoxic, single point]",–
O=C(/C=C/c1ccccc1)NC(NC(=S)Nc1ccc(Cl)cc1)C(Cl)(Cl)Cl (stereo unspecified),"inconclusive: 16.4 µM [cytotoxic, single point]",–
CCSc1nc2ccccc2n1CC(=O)N1CCCCC1,"inconclusive: 0.164 µM [cytotoxic, partial curve, poor fit]",–
CCC1CCc2nc3sc(C(=O)Nc4ccc(F)cc4F)c(N)c3cc2C1 (stereo unspecified),"inconclusive: 4.61 µM [rising, full curve, poor fit]",–
Cn1nc(-c2ccc(Cl)cc2)c2cc(C(=O)NC3CC3)sc21,"inconclusive: 0.58 µM [cytotoxic, full curve, poor fit]",–
CN(Cc1ccccc1)C(=O)c1ccc(NC(=O)C2CCCN(C(=O)OC(C)(C)C)C2)cc1 (stereo unspecified),–,inactive: -13.2%
Cc1ccc(C2=C(c3ccc([N+](=O)[O-])cc3)C(=O)OC2)cc1C,"inconclusive: 23.1 µM [cytotoxic, partial curve]",–
COc1ccc(NC(=O)C2CCC(CNS(=O)(=O)c3cccs3)CC2)cc1 (stereo unspecified),–,inactive: 0.927%

# Ordered by formula weight (low to high): 3 of the compounds above
SMILES,Potency,"activity change, negative = cytotoxicity"
Cc1ccc(C2=C(c3ccc([N+](=O)[O-])cc3)C(=O)OC2)cc1C,"inconclusive: 23.1 µM [cytotoxic, partial curve]",–
C=CCC(C(=O)NC(C)c1ccccc1)C(=O)NC(C)c1ccccc1 (stereo unspecified),–,inactive: -11.6%
Cc1cc(C)c(S(=O)(=O)NCCOc2ccccc2)c(C)c1-n1cnnn1,"inconclusive: 25.9 µM [cytotoxic, single point]",–

# Molecules above that contain an aryl thioether with sulfur outside any ring (two):
SMILES,Potency,"activity change, negative = cytotoxicity"
CCCNC(=O)c1onc(CSc2ccc(F)c(F)c2)c1C(=O)NCCC,–,inactive: -12%
CCSc1nc2ccccc2n1CC(=O)N1CCCCC1,"inconclusive: 0.164 µM [cytotoxic, partial curve, poor fit]",–

# Next part

SMILES,Potency,"activity change, negative = cytotoxicity"
Nc1ccccc1SC(C[N+](=O)[O-])c1ccccc1 (stereo unspecified),"inconclusive: 18.4 µM [cytotoxic, single point]",–
Cn1nnnc1SCCNCc1ccc(Cl)cc1,–,inactive: -23.2%
CCCCNC(=O)CSc1nnc(Cc2ccc(Cl)c(Cl)c2)c(=O)[nH]1,"inconclusive: 29.1 µM [rising, single point]",–
CCOc1ccc(CCNC(=O)Cn2nnc(-c3ccccc3)n2)cc1OCC,"inconclusive: 9.2 µM [cytotoxic, partial curve]",–
CC(C)C(=O)Nc1ccccc1N1CCN(C(=O)c2ccccc2)CC1,"inconclusive: 18.4 µM [cytotoxic, single point]",–
CC1(C(=O)N2CCCCC2)CCN1C(=O)C1(c2ccccc2)CC1 (stereo unspecified),–,inactive: 2.81%
Cc1cc(C)n2c(NC3CCCCC3)c(-c3ccccn3)nc2n1,"inconclusive: 8.2 µM [cytotoxic, partial curve]",–
c1ccc2[nH]c(CSc3ncnc4c3oc3ccccc34)nc2c1,active: 4.61 µM,–
Nc1cc(Cc2ccccc2)ccc1O,active: 18.4 µM,–
Cc1cc(N2CCC(C)CC2)n2nc(C)c(-c3ccccc3)c2n1,"inconclusive: 7.31 µM [cytotoxic, partial curve, poor fit]",–
Cc1c(-c2nc(N)nc(Nc3ccccc3)n2)oc2ccccc12,"inconclusive: 18.4 µM [cytotoxic, single point]",–
CCOc1ccccc1N(CC(=O)N1CCN(Cc2ccccc2)CC1)S(=O)(=O)c1ccccc1,"inconclusive: 7.31 µM [cytotoxic, partial curve]",–
CCOC(=O)/C(=N\Nc1ccccc1Cl)N1CCN(Cc2ccccc2)CC1,active: 3.66 µM,–
CCOC(=O)c1cc(-c2ccc(C)cc2)n(CCC(=O)N2CCN(c3ccccn3)CC2)c1C,active: 1.16 µM,–
O=C(NN1CCOCC1)c1cccc2ccccc12,"inconclusive: 11.6 µM [rising, partial curve, poor fit]",–
CCOC(=O)[C@H]1[C@H]2COc3ccc(Cl)cc3[C@@H]2N2C(=O)c3cc(Cl)ccc3NC(=O)[C@@]12C,"inconclusive: 18.4 µM [cytotoxic, single point]",–
CCc1nnc(N2CCN(c3ncnc4c3oc3ccccc34)CC2)s1,–,inactive: -26.4%
Fc1ccc(NC(=S)N2CCCCC2)cc1,"inconclusive: 6.51 µM [rising, partial curve, poor fit]",–
Cc1cc(C)c(OCC(=O)Nc2cccc(NC(=O)c3ccco3)c2)c(Br)c1,active: 20.6 µM,–
COC(/C=C/Nc1ccc(Br)cc1)=C(C#N)C#N,"inconclusive: 29.1 µM [cytotoxic, single point]",–
CCc1ccccc1NC(=O)c1ccc2nc(CCc3ccccc3)oc2c1,–,inactive: 11%
Cc1ccc(C(=O)COC(=O)C(CC(C)C)NC(=O)C2CCC(C)CC2)cc1 (stereo unspecified),–,inactive: -0.183%
S=C1SCN(Cc2ccccn2)CN1Cc1ccco1,"inconclusive: 29.1 µM [cytotoxic, single point]",–
CN(Cc1ccc(Cl)c(Cl)c1)C(=O)c1ccccc1SCC(=O)N1CCCC1,"inconclusive: 18.4 µM [cytotoxic, single point]",–

SMILES,Potency,"activity change, negative = cytotoxicity"
CCCCNC(=O)CCn1c(=O)c2ccccc2n(Cc2ccccc2C#N)c1=O,–,inactive: 6.01%
O=C(NCc1ccc(F)c(F)c1)C1Cc2c(-c3ccc4c(c3)OCO4)ccnc2O1 (stereo unspecified),active: 4.11 µM,–
CCC(CC)c1nnc(NC(=O)c2ccc([N+](=O)[O-])cc2)s1,active: 20.6 µM,–
CCN(CC)C(=O)c1nc(-c2cccc3ccccc23)no1,"inconclusive: 14.6 µM [cytotoxic, partial curve]",–
COc1ccc(NC(=O)C2Cc3c(-c4cccc(F)c4)ccnc3O2)cc1OC (stereo unspecified),"inconclusive: 23.1 µM [cytotoxic, single point]",–
COC(=O)c1ccc2c(CCO)c[nH]c2c1,"inconclusive: 18.4 µM [rising, single point]",–
O=[N+]([O-])c1ccc(Cl)c(S(=O)(=O)N2CCCCCC2)c1,"inconclusive: 20.6 µM [cytotoxic, single point]",–
COC(=O)c1ccccc1NC(=O)C1CCCN(S(=O)(=O)c2ccc(OC)cc2)C1 (stereo unspecified),"inconclusive: 25.9 µM [cytotoxic, single point]",–
CC(C)(C)c1ccc2c(c1)OC(C(=O)N/N=C\c1ccncc1)CO2 (stereo unspecified),"inconclusive: 29.1 µM [cytotoxic, single point]",–
CC1(Cc2ccccc2OC(F)(F)F)C(=O)Nc2ccc(OC(F)(F)F)cc21 (stereo unspecified),–,inactive: -12.4%
CNC(=O)OCc1nc(SSC(C)(C)C)n(C)c1COC(=O)NC,–,inactive: 6.15%
CC12C=CC3(CN(Cc4ccccc4)C(=O)C3C1C(=O)NC1CC1)O2 (stereo unspecified),"inconclusive: 14.1 µM [rising, partial curve, poor fit]",–
COc1ccccc1N1CCN(C(c2ccc(N(C)C)cc2)c2nnnn2CCc2ccccc2)CC1 (stereo unspecified),–,inconclusive: -48.5% [cytotoxic]
Cn1c(=O)cc(OCCCC(=O)Nc2ccc(F)cc2)c2ccccc21,"inconclusive: 20.6 µM [cytotoxic, partial curve, poor fit]",–
Cc1ccccc1-c1nc(CS(=O)(=O)CC(=O)N2CCN(c3ccccc3)CC2)c(C)o1,"inconclusive: 16.4 µM [cytotoxic, single point]",–
O=S(=O)(c1cccc(-c2nnc(-c3cccnc3)o2)c1)N1CCCCC1,"inconclusive: 14.6 µM [cytotoxic, partial curve]",–
CCOC(=O)c1cnc2c(N=Nc3ccccc3)c(N)nn2c1N,"inconclusive: 8.2 µM [cytotoxic, partial curve]",–
Cc1nnc(SCC(=O)Nc2nc(-c3ccc(F)cc3)cs2)[nH]c1=O,–,inactive: 0%
CCOC(=O)c1c(NC(=O)c2nn(CC)cc2Br)c(C#N)nn1-c1ccccc1,active: 16.4 µM,–
CC(=O)OC(C)C(=O)NS(=O)(=O)c1ccc(C)cc1 (stereo unspecified),"inconclusive: 14.6 µM [rising, partial curve]",–
CCOc1ccc(-c2nc(CSCC(=O)N3CCN(c4cccc(OC)c4)CC3)c(C)o2)cc1,–,inactive: -21.4%
CC(Sc1ccc(Cl)cc1)C(=O)Nc1ccccc1-c1ccccc1 (stereo unspecified),"inconclusive: 29.1 µM [cytotoxic, single point]",–
COc1cccc(NC(=O)Cn2cc(S(=O)(=O)N3CCCC3)c(S(=O)(=O)N3CCCC3)c2)c1,–,inactive: 11.3%

# — PubChem BioAssay AID1347076 (National Center for Advancing Translational Sciences (NCATS), 2019)
